For test [1], the target named is T1, GST-AnxA6 fusion protein (UniProt P08133).
T1 sequence: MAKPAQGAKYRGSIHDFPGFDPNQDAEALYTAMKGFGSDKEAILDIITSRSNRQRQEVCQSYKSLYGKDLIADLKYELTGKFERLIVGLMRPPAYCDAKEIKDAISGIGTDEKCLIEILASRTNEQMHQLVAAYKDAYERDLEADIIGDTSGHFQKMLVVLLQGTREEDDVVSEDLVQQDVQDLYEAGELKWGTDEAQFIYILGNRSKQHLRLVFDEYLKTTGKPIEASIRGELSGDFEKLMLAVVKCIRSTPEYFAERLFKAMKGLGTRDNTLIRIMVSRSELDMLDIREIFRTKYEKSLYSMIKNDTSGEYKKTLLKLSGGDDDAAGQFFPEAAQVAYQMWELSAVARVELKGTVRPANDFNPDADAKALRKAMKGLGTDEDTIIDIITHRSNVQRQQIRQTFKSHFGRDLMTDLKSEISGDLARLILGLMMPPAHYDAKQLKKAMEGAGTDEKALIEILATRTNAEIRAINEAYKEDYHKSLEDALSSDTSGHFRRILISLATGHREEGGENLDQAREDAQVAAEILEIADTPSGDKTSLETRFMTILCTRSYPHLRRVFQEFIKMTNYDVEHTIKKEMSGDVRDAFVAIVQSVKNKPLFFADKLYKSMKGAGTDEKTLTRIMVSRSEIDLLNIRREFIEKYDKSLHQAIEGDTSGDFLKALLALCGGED
Kind of test: pull-down; 2 µg of GST-AnxA6 immobilized to glutathione beads, incubated with 500 µg of whole cell extract from MDA-468 cells in lysis buffer with or without 1 mM Ca2+; Western blotting; only the target purified. Background: A western blot detects proteins with antibodies after separation by electrophoresis.

Amino acid sequences for entries named in this document (tags omitted).
UniProt P51149: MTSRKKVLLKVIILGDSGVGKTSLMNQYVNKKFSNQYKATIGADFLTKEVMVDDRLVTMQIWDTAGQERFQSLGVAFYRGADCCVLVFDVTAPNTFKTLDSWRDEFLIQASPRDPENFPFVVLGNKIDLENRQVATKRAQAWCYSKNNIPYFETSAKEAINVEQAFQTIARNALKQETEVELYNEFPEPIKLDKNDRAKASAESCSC

The target in test [2] is T2, Annexin A6 (human (endogenous in TNBC cell lines)) (UniProt P08133).
T2 sequence: T1 sequence
Briefly: proximity ligation; Duolink In Situ Red kit, mouse anti-AnxA6 and rabbit anti-SNAP23 EPR8538 on cells in chamber slides; confocal microscopy; cell line not stated.

Test [3] addresses T3, Flag-tagged Annexin A6 (UniProt P08133).
T3 sequence: T1 sequence
Kind of test: co-IP; anti-AnxA6 antibody on lysates (RIPA buffer) of empty vector and Flag-AnxA6 transfected MDA-468 cells; with or without the crosslinker DSP; Western blotting.

The target of test [4] is T3, Flag-tagged Annexin A6. Kind of test: co-IP; anti-Flag-M2 antibody on whole cell lysates (RIPA buffer) of MDA-468 cells expressing Flag-tagged AnxA6; cells treated with or without the crosslinker DSP; Western blotting.

No constants are given. Whether binding was seen depends on the method and setting. In cells and extracts the contact can be indirect. Some binding calls cover weakened binding; strength is not graded here. For some of these results: Tags and fused reporters may be left off the sequences shown.

For “EGFR (from UniProt P00533 25-1210) (receptor)”, the binding result in test [1] is listed as “binds”.

With Rab7 (from UniProt P51149 1-207), the binding entry in test [1] is recorded as “binds”.

B1: flotillin (protein, UniProt O75955 1-427)
chain: MFFTCGPNEAMVVSGFCRSPPVMVAGGRVFVLPCIQQIQRISLNTLTLNVKSEKVYTRHGVPISVTGIAQVKIQGQNKEMLAAACQMFLGKTEAEIAHIALETLEGHQRAIMAHMTVEEIYKDRQKFSEQVFKVASSDLVNMGISVVSYTLKDIHDDQDYLHSLGKARTAQVQKDARIGEAEAKRDAGIREAKAKQEKVSAQYLSEIEMAKAQRDYELKKAAYDIEVNTRRAQADLAYQLQVAKTKQQIEEQRVQVQVVERAQQVAVQEQEIARREKELEARVRKPAEAERYKLERLAEAEKSQLIMQAEAEAASVRMRGEAEAFAIGARARAEAEQMAKKAEAFQLYQEAAQLDMLLEKLPQVAEEISGPLTSANKITLVSSGSGTMGAAKVTGEVLDILTRLPESVERLTGVSISQVNHKPLRTA
For the molecule B1, the binding entry in test [1] is recorded as “binds”.

B2: SNAP23 (protein, UniProt O00161 1-211)
chain: MDNLSSEEIQQRAHQITDESLESTRRILGLAIESQDAGIKTITMLDEQKEQLNRIEEGLDQINKDMRETEKTLTELNKCCGLCVCPCNRTKNFESGKAYKTTWGDGGENSPCNVVSKQPGPVTNGQLQQPTTGAASGGYIKRITNDAREDEMEENLTQVGSILGNLKDMALNIGNEIDAQNPQIKRITDKADTNRDRIDIANARAKKLIDS
In the case of B2, the binding result in test [2], in test [3], in test [4] and in test [1] was “binds” in each case.

The record behind these values is article PMC13257416.
